Source: publication PMC5461494
No constants are given. Whether binding was seen depends on the method and setting. Binding seen in cells or lysates may run through a third protein. For part of these data: Binding can be weak; no strength is given. For part of these data: Tags and fused reporters may be left off the sequences shown.

The chains behind the UniProt entries cited, without tags or fusion partners. Where a name states a change or a piece, a line headed by the entry shows the natural chain unless it says otherwise.
UniProt Q14676: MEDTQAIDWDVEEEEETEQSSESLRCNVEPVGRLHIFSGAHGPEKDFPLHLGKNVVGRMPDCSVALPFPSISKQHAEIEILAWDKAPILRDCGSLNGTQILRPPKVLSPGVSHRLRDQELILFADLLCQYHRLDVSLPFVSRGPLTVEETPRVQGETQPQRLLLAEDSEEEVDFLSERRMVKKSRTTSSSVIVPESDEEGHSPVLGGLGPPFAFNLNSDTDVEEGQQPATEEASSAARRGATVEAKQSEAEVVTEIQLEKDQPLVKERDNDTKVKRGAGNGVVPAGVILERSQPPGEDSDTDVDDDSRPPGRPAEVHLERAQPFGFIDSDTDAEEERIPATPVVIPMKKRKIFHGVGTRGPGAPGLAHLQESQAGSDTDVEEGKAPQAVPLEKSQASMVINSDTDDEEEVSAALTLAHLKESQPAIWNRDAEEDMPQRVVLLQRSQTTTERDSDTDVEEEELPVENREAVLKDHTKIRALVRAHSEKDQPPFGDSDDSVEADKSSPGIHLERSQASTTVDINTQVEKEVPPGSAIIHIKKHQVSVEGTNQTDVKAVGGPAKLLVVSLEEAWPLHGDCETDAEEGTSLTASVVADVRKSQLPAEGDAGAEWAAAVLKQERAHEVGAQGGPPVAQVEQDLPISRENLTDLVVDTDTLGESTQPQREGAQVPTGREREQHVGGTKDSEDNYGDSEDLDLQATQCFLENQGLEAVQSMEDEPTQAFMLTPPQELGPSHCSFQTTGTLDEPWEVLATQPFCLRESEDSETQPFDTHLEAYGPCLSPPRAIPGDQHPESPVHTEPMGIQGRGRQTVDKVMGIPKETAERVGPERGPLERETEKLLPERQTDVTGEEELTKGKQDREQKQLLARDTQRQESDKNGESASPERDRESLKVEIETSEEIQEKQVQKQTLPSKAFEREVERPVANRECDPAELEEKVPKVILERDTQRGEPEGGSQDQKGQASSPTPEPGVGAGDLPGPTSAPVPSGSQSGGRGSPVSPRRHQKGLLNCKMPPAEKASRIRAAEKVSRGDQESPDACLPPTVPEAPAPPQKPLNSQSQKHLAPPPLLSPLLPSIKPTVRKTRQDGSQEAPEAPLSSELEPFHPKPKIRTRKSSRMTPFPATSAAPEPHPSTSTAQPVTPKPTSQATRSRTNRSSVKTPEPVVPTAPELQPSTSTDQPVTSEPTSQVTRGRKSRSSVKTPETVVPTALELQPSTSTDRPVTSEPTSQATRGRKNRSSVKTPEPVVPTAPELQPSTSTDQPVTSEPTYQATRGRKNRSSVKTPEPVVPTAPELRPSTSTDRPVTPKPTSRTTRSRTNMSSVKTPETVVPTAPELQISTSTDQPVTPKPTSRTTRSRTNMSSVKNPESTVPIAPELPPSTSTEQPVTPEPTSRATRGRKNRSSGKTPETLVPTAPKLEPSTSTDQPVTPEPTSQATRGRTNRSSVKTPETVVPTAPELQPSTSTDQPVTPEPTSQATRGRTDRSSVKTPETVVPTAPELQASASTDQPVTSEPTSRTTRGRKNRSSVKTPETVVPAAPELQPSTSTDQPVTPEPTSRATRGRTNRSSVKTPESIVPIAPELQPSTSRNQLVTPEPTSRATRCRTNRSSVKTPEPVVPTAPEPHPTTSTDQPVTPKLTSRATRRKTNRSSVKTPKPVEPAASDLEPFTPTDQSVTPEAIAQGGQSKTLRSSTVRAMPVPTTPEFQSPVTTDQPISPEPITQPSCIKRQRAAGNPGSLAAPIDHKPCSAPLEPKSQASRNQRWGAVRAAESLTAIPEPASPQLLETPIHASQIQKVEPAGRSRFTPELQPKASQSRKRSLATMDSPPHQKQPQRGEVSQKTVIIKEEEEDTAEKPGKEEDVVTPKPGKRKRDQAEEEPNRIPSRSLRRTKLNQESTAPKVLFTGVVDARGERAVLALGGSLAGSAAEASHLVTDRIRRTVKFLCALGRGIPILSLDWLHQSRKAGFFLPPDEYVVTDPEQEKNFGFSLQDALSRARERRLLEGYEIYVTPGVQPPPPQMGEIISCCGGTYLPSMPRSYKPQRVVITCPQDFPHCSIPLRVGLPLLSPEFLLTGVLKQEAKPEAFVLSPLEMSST

Assays:
GST-MDC1-FHA domain = GST-MDC1-FHA domain (UniProt Q14676); experiment: pull-down; GST or GST-MDC1-FHA domain coupled to Sepharose, incubated with lysates of cisplatin-treated HEK293T cells transfected with WT or T196A USP13; only the target purified
[1] = biological target: HA-MDC1 with the FHA domain deleted (UniProt Q14676); experiment: co-IP; HEK293T cells transfected with HA-MDC1 or its deletion mutants, untreated or treated with cisplatin; immunoprecipitation with HA antibody

Row | binding (GST-MDC1-FHA domain) | binding [1] | Binder
1 | binds | – | WT USP13 (HA-FLAG-USP13) (enzyme, UniProt Q92995 1-863, phosphorylated on Thr196 after DNA damage (cells treated with cisplatin)) MQRRGALFGMPGGSGGRKMAAGDIGELLVPHMPTIRVPRSGDRVYKNECAFSYDSPNSEGGLYVCMNTFLAFGREHVERHFRKTGQSVYMHLKRHVREKVRGASGGALPKRRNSKIFLDLDTDDDLNSDDYEYEDEAKLVIFPDHYEIALPNIEELPALVTIACDAVLSSKSPYRKQDPDTWENELPVSKYANNLTQLDNGVRIPPSGWKCARCDLRENLWLNLTDGSVLCGKWFFDSSGGNGHALEHYRDMGYPLAVKLGTITPDGADVYSFQEEEPVLDPHLAKHLAHFGIDMLHMHGTENGLQDNDIKLRVSEWEVIQESGTKLKPMYGPGYTGLKNLGNSCYLSSVMQAIFSIPEFQRAYVGNLPRIFDYSPLDPTQDFNTQMTKLGHGLLSGQYSKPPVKSELIEQVMKEEHKPQQNGISPRMFKAFVSKSHPEFSSNRQQDAQEFFLHLVNLVERNRIGSENPSDVFRFLVEERIQCCQTRKVRYTERVDYLMQLPVAMEAATNKDELIAYELTRREAEANRRPLPELVRAKIPFSACLQAFSEPENVDDFWSSALQAKSAGVKTSRFASFPEYLVVQIKKFTFGLDWVPKKFDVSIDMPDLLDINHLRARGLQPGEEELPDISPPIVIPDDSKDRLMNQLIDPSDIDESSVMQLAEMGFPLEACRKAVYFTGNMGAEVAFNWIIVHMEEPDFAEPLTMPGYGGAASAGASVFGASGLDNQPPEEIVAIITSMGFQRNQAIQALRATNNNLERALDWIFSHPEFEEDSDFVIEMENNANANIISEAKPEGPRVKDGSGTYELFAFISHMGTSTMSGHYICHIKKEGRWVIYNDHKVCASERPPKDLGYMYFYRRIPS
2 | – | no binding | USP13 (in HEK293T lysate) (enzyme, UniProt Q92995 1-863) MQRRGALFGMPGGSGGRKMAAGDIGELLVPHMPTIRVPRSGDRVYKNECAFSYDSPNSEGGLYVCMNTFLAFGREHVERHFRKTGQSVYMHLKRHVREKVRGASGGALPKRRNSKIFLDLDTDDDLNSDDYEYEDEAKLVIFPDHYEIALPNIEELPALVTIACDAVLSSKSPYRKQDPDTWENELPVSKYANNLTQLDNGVRIPPSGWKCARCDLRENLWLNLTDGSVLCGKWFFDSSGGNGHALEHYRDMGYPLAVKLGTITPDGADVYSFQEEEPVLDPHLAKHLAHFGIDMLHMHGTENGLQDNDIKLRVSEWEVIQESGTKLKPMYGPGYTGLKNLGNSCYLSSVMQAIFSIPEFQRAYVGNLPRIFDYSPLDPTQDFNTQMTKLGHGLLSGQYSKPPVKSELIEQVMKEEHKPQQNGISPRMFKAFVSKSHPEFSSNRQQDAQEFFLHLVNLVERNRIGSENPSDVFRFLVEERIQCCQTRKVRYTERVDYLMQLPVAMEAATNKDELIAYELTRREAEANRRPLPELVRAKIPFSACLQAFSEPENVDDFWSSALQAKSAGVKTSRFASFPEYLVVQIKKFTFGLDWVPKKFDVSIDMPDLLDINHLRARGLQPGEEELPDISPPIVIPDDSKDRLMNQLIDPSDIDESSVMQLAEMGFPLEACRKAVYFTGNMGAEVAFNWIIVHMEEPDFAEPLTMPGYGGAASAGASVFGASGLDNQPPEEIVAIITSMGFQRNQAIQALRATNNNLERALDWIFSHPEFEEDSDFVIEMENNANANIISEAKPEGPRVKDGSGTYELFAFISHMGTSTMSGHYICHIKKEGRWVIYNDHKVCASERPPKDLGYMYFYRRIPS
3 | no binding | – | USP13 T196A (enzyme, UniProt Q92995 1-863) MQRRGALFGMPGGSGGRKMAAGDIGELLVPHMPTIRVPRSGDRVYKNECAFSYDSPNSEGGLYVCMNTFLAFGREHVERHFRKTGQSVYMHLKRHVREKVRGASGGALPKRRNSKIFLDLDTDDDLNSDDYEYEDEAKLVIFPDHYEIALPNIEELPALVTIACDAVLSSKSPYRKQDPDTWENELPVSKYANNLAQLDNGVRIPPSGWKCARCDLRENLWLNLTDGSVLCGKWFFDSSGGNGHALEHYRDMGYPLAVKLGTITPDGADVYSFQEEEPVLDPHLAKHLAHFGIDMLHMHGTENGLQDNDIKLRVSEWEVIQESGTKLKPMYGPGYTGLKNLGNSCYLSSVMQAIFSIPEFQRAYVGNLPRIFDYSPLDPTQDFNTQMTKLGHGLLSGQYSKPPVKSELIEQVMKEEHKPQQNGISPRMFKAFVSKSHPEFSSNRQQDAQEFFLHLVNLVERNRIGSENPSDVFRFLVEERIQCCQTRKVRYTERVDYLMQLPVAMEAATNKDELIAYELTRREAEANRRPLPELVRAKIPFSACLQAFSEPENVDDFWSSALQAKSAGVKTSRFASFPEYLVVQIKKFTFGLDWVPKKFDVSIDMPDLLDINHLRARGLQPGEEELPDISPPIVIPDDSKDRLMNQLIDPSDIDESSVMQLAEMGFPLEACRKAVYFTGNMGAEVAFNWIIVHMEEPDFAEPLTMPGYGGAASAGASVFGASGLDNQPPEEIVAIITSMGFQRNQAIQALRATNNNLERALDWIFSHPEFEEDSDFVIEMENNANANIISEAKPEGPRVKDGSGTYELFAFISHMGTSTMSGHYICHIKKEGRWVIYNDHKVCASERPPKDLGYMYFYRRIPS
